From the supplement of paper PMC10849652
The list shows a part of the results.

Protein sequences, listed by entry. Tags and fused reporters are not part of them. Lines headed by an entry give the natural chain unless they say otherwise; changes in a name come on top.
UniProt Q8N2K1: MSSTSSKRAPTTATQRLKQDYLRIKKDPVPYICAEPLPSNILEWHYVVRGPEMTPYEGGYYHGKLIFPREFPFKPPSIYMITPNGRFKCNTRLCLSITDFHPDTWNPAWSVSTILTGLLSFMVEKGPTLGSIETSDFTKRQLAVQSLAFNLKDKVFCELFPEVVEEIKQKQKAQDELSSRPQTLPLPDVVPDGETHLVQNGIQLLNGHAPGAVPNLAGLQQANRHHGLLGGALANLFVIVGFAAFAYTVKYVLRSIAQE
UniProt Q96N46: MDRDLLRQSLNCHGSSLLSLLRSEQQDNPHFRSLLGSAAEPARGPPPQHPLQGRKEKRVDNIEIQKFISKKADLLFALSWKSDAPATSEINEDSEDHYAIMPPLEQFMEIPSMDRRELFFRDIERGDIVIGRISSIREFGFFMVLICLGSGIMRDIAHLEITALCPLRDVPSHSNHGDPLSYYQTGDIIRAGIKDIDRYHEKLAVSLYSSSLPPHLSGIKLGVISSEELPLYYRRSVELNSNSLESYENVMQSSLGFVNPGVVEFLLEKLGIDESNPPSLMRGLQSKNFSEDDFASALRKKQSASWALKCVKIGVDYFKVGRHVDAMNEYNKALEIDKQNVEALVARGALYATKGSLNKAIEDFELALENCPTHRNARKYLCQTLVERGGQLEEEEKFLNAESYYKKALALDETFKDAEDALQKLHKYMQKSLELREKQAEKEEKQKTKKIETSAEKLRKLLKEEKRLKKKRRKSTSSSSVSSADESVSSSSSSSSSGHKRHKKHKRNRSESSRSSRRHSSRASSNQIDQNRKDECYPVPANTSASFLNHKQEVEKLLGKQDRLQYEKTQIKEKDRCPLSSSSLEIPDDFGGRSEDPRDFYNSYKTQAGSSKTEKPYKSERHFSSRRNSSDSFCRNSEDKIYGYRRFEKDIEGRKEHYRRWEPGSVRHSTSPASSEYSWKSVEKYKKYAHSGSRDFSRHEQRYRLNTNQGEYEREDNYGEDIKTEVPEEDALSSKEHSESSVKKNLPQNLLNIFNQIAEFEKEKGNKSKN
UniProt Q8WUA8: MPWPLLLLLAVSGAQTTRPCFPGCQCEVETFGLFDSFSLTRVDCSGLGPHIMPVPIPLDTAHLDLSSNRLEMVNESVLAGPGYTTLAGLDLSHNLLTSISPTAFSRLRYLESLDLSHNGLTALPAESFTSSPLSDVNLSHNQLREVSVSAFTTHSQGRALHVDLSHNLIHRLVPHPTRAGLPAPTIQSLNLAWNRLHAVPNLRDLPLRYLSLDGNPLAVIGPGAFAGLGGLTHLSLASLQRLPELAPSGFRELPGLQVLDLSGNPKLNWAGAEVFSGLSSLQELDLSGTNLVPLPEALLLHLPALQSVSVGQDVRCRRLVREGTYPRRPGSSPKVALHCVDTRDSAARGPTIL
UBE2L5, A0A1B0GUS4, UniProt A0A1B0GUS4, whole entry, looked up: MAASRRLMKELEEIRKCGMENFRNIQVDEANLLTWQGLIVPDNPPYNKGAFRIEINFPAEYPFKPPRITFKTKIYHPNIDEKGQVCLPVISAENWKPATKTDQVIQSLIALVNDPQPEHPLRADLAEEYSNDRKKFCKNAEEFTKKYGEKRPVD
UniProt Q7Z4L5: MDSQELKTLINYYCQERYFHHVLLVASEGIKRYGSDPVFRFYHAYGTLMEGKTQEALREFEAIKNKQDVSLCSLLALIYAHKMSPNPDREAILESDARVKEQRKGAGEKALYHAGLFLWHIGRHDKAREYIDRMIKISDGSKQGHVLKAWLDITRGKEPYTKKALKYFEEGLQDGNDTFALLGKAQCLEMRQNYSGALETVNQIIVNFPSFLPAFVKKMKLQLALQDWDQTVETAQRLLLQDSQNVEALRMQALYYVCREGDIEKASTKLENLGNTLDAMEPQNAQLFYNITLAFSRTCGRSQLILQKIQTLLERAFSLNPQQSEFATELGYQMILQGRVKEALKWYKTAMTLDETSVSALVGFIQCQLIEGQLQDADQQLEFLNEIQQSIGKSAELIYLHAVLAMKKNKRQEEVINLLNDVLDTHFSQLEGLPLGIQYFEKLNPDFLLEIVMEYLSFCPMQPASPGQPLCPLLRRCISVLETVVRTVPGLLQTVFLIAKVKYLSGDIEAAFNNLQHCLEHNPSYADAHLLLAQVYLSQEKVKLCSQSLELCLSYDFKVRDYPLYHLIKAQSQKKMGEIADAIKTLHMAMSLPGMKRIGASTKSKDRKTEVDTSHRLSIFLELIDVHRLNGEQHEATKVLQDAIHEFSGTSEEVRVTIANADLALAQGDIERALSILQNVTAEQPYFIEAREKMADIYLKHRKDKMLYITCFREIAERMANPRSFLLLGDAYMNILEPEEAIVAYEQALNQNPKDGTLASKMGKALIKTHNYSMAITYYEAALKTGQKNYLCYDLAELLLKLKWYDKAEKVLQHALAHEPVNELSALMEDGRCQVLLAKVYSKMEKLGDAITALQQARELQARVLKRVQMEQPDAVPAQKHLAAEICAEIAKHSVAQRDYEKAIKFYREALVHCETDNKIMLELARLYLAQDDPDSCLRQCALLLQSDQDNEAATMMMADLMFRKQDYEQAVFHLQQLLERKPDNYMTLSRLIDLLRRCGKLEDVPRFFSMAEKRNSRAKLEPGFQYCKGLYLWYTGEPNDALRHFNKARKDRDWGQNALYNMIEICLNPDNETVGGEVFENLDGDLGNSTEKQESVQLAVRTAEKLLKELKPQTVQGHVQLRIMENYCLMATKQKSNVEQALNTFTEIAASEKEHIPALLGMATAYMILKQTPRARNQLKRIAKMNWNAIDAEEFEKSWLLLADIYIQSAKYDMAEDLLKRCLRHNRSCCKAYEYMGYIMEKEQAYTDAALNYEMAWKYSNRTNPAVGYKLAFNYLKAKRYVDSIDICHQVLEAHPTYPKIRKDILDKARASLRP
UniProt Q96FV3: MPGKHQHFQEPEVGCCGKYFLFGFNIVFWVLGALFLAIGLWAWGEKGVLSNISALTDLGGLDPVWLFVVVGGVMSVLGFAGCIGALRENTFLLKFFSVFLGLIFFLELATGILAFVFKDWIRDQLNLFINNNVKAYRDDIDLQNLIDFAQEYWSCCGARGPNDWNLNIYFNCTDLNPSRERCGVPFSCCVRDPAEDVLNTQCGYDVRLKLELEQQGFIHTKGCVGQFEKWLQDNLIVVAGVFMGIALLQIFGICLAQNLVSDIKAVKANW
UniProt O95857: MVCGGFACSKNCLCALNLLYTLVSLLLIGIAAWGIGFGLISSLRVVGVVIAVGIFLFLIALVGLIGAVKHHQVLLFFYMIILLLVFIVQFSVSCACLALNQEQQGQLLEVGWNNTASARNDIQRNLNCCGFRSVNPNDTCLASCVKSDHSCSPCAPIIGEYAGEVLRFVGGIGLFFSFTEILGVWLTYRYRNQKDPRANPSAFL
UniProt Q3ZCM7, whole entry, looked up: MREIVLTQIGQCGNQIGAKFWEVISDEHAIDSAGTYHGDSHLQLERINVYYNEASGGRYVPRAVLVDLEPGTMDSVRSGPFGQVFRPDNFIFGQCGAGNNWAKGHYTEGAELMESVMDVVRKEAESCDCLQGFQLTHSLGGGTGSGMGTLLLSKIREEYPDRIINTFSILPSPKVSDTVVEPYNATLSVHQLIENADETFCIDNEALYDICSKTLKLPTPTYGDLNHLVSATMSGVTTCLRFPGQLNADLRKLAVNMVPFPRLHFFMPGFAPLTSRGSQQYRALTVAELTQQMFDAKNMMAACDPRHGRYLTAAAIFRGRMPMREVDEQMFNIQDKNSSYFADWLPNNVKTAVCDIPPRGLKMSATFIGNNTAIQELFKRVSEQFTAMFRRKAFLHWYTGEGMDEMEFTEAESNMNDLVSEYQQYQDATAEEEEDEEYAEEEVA
UniProt A6NNZ2, whole entry, looked up: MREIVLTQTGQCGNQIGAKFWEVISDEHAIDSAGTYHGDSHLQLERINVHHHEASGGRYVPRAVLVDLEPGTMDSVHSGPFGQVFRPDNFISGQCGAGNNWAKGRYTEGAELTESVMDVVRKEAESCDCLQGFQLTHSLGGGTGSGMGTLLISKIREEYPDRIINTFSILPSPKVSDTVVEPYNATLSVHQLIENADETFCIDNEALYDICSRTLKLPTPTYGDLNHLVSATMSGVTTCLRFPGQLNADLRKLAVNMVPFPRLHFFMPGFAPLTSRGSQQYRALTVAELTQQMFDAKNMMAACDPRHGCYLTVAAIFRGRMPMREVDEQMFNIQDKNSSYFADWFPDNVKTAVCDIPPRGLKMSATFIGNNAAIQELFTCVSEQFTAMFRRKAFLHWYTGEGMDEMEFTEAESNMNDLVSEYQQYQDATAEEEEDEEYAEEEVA
UniProt Q06418: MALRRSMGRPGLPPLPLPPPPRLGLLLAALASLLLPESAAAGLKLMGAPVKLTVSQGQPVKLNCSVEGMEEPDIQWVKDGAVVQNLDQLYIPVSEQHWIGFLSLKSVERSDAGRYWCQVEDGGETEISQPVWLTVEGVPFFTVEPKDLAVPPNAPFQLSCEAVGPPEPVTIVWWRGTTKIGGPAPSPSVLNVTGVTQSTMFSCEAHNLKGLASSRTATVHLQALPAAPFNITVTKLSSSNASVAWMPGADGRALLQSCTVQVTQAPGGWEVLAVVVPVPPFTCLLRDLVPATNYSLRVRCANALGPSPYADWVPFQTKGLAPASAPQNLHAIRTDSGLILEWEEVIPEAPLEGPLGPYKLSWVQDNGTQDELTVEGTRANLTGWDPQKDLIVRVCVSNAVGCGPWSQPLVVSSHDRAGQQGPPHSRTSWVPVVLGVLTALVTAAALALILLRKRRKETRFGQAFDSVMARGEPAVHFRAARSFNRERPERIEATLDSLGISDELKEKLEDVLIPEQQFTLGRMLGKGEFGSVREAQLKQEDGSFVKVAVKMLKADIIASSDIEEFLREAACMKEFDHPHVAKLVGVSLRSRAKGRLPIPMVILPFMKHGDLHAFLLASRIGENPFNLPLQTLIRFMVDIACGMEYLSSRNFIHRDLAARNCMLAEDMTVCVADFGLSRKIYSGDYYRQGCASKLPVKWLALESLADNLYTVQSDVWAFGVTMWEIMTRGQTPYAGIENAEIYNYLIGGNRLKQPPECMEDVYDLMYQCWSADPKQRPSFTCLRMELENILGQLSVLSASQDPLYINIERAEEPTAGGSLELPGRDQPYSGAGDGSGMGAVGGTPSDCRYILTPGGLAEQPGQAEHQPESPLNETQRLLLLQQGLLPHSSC
UniProt O14817: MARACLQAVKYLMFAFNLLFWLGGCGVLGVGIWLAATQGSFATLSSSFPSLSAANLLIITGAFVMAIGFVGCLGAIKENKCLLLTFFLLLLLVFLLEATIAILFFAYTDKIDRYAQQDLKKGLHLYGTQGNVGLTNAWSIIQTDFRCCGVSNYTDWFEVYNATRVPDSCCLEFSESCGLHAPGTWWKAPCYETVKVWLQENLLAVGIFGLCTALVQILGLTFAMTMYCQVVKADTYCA
UniProt Q86VQ3: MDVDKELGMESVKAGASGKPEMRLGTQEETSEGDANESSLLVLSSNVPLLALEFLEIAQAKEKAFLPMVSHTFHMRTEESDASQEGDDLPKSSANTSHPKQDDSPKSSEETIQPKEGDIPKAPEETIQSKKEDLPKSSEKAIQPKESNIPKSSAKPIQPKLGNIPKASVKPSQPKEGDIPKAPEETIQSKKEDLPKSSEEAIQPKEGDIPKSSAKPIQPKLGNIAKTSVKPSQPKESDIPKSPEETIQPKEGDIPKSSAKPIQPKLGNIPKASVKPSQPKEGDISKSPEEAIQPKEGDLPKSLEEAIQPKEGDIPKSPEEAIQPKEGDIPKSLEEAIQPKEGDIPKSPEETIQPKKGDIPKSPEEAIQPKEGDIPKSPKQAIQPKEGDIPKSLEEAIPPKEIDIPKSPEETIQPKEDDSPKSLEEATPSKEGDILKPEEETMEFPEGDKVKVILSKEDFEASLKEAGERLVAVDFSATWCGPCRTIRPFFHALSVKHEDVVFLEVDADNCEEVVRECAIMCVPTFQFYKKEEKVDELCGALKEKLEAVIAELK
UniProt Q9H892: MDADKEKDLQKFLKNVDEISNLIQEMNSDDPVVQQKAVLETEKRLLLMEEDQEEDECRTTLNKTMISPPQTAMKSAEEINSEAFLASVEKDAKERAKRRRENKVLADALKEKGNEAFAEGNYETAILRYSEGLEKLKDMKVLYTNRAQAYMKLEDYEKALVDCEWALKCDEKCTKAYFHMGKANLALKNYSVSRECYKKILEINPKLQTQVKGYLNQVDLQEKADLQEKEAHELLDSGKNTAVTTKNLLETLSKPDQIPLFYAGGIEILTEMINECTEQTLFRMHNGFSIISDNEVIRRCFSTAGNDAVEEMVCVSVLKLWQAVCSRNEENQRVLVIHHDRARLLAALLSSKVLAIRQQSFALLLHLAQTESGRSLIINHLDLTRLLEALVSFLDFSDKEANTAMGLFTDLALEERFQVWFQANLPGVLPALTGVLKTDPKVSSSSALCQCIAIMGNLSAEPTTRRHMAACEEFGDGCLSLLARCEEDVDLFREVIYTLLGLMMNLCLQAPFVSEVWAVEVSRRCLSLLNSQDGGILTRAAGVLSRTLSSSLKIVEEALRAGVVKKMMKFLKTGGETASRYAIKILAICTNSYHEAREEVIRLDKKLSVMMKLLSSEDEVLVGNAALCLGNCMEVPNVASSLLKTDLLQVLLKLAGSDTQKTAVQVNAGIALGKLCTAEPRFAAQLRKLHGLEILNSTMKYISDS

How the values were obtained:
Assay in all cases: log2 fold change, soluble protein after heating vs DMSO (PISA); higher = thermal stabilisation; K562 cells, 10 uM, 30 min; active = over 0.2 and 3.5 SD of the protein, either way, in both replicates (recomputed)
erlotinib = compound: C#Cc1cccc(Nc2ncnc3cc(OCCOC)c(OCCOC)cc23)c1 [erlotinib]
Summary of the method: (§1)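 Soluble protein was quantified by TMTpro 16plex LC-MS/MS after channel sums were equalised. It was obtained as the supernatant after 21,000xg for 90 min from pooled aliquots of K562 cells (2×10^6 cells/mL, 10 μM compound, 30 min) heated for 3 min across 48°C-58°C and extracted in PBS with 0.5% NP-40 at 4°C. Thermal stability values are relative to control samples and come from duplicates. They are given as log2 fold changes.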

[1] = compound: C/C(=N\NC(=O)C1=CC(=CC=C1)S(=O)(=O)N2CCOCC2)/C3=C(C=CC(=C3)Cl)O
Summary of the method: as §1

[2] = compound: C1=CC(=CC=C1C2=NC3=C(N2)C=C(C=C3)C(=O)N)OC4=CC=C(C=C4)Cl
Summary of the method: as §1

[3] = compound: C1=CC2=C(C=CC(=C2)/C=C\3/C(=O)NC(=NCC4=CC=CS4)S3)N=C1
Summary of the method: as §1

[4] = compound: C1=CC=C2C(=C1)C3=NNC4=CC=CC(=C43)C2=O
Summary of the method: as §1

[5] = compound: C1=CC(=C(C=C1Cl)C2=NC3=NC=CN=C3C(=N2)NC4=CC=NC=C4)F
Summary of the method: as §1

[6] = compound: C1=CC2=NC=CN=C2C=C1/C=C/3\C(=O)NC(=O)S3
Summary of the method: as §1

[7] = compound: C1CCN(C1)C(=O)NC2=CC=CC(=C2)NC3=NC=C(C(=N3)NCCC4=CN=CN4)Br
Summary of the method: as §1

[8] = compound: C1CN(CCC1(CC2=CC=C(C=C2)Cl)N)C3=NC=NC4=C3C=CN4
Summary of the method: as §1

[9] = compound: C1=CC=C(C=C1)C2=NC(=C(N2)C3=CC=NC=C3)C4=CC(=C(C=C4)Cl)O
Summary of the method: as §1

Row | Target | log2 fold change (erlotinib) | log2 fold change [1] | log2 fold change [2] | log2 fold change [3] | log2 fold change [4] | log2 fold change [5] | log2 fold change [6] | log2 fold change [7] | log2 fold change [8] | log2 fold change [9]
1 | TTR (UniProt P02766) | inactive: 0.134 | inactive: 0.007 | inactive: -0.455 | inactive: 0.644 | inactive: -0.401 |  |  |  |  | 
2 | UBE2J2 isoform 3 (UniProt Q8N2K1) | inactive: -0.096 | inactive: 0.154 | inactive: 0.07 | inactive: -0.057 | inactive: -0.039 | inactive: 0.026 | inactive: 0.126 | inactive: -0.145 | inactive: -0.015 | 
3 | TUBGCP4 (UniProt Q9UGJ1) | inactive: 0.114 | inactive: -0.119 | inactive: -0.085 | inactive: -0.04 | inactive: 0.058 |  | inactive: 0.139 | inactive: -0.065 | inactive: -0.067 | inactive: 0.07
4 | TUBGCP3 (UniProt Q96CW5) | inactive: -0.025 | inactive: 0.037 | inactive: 0.094 | inactive: 0.028 | inactive: 0.106 | inactive: -0.15 | inactive: -0.031 | inactive: -0.146 | inactive: -0.102 | inactive: -0.068
5 | TST (UniProt Q16762) | inactive: 0.188 | inactive: 0.106 | inactive: -0.079 | inactive: 0.218 | inactive: -0.241 | inactive: -0.312 |  |  |  | 
6 | UBE2D1 (UniProt P51668) | inactive: 0.098 | inactive: 0.071 | inactive: 0.068 | inactive: 0.057 | inactive: -0.096 |  | inactive: 0.023 | inactive: 0.022 | inactive: -0.162 | inactive: 0.01
7 | U2AF1L5 (UniProt P0DN76) | active: 1.29 | inactive: 0.031 | inactive: 0.022 | inactive: -0.159 | inactive: -0.005 |  | inactive: 0.096 | inactive: 0.153 | inactive: -0.207 | 
8 | TSPAN31 (UniProt Q12999) | inactive: -0.055 | inactive: -0.095 | inactive: 0.084 | inactive: 0.04 | inactive: -0.049 | inactive: 0.11 |  | inactive: 0.03 | inactive: 0.027 | 
9 | TTC14 (UniProt Q96N46) | inactive: 0.267 |  | inactive: 0.122 |  |  |  | inactive: -0.056 | inactive: 0.08 | inactive: -0.047 | 
10 | TYK2 (UniProt P29597) |  |  |  |  |  |  | inactive: 0.107 |  |  | 
11 | TTC37 (UniProt Q6PGP7) |  | inactive: -0.09 |  | inactive: 0.159 | inactive: -0.117 | inactive: -0.567 | inactive: -0.094 |  |  | inactive: -0.173
12 | TTK (UniProt P33981) |  |  |  |  |  | inactive: -0.34 |  |  |  | inactive: -0.171
13 | TSKU (UniProt Q8WUA8) | inactive: -0.092 |  | inactive: 0.012 |  |  |  |  | inactive: 0.014 | inactive: -0.241 | 
14 | UBE2L5, A0A1B0GUS4 | inactive: -0.122 |  | inactive: -0.283 |  |  |  |  | inactive: 0.515 | inactive: 0.159 | 
15 | UBE2K (UniProt D6RDM7) |  |  |  |  |  | inactive: -0.035 | inactive: -0.225 | inactive: 0.189 | inactive: -0.013 | inactive: -0.062
16 | TVP23C (UniProt Q96ET8) | inactive: -0.025 | inactive: 0.053 | inactive: -0.021 | inactive: 0.062 | inactive: -0.098 |  |  | inactive: 0.066 | inactive: -0.031 | 
17 | TTC21B (UniProt Q7Z4L5) |  |  |  |  |  |  |  | inactive: -0.016 | inactive: 0.234 | 
18 | TUBD1 (UniProt Q9UJT1) |  | inactive: 0.057 |  | inactive: 0.266 | inactive: -0.158 |  |  |  |  | inactive: 0.104
19 | TTC5 (UniProt Q8N0Z6) |  |  |  |  |  |  |  |  |  | inactive: -0.05
20 | TSPAN17 isoform 4 (UniProt Q96FV3) | inactive: -0.156 |  | inactive: -0.011 |  |  | inactive: 0.087 |  |  |  | 
21 | TUBA4A (UniProt C9JJQ8) |  |  |  |  |  |  | inactive: 0.004 | inactive: 0.142 | inactive: -0.036 | 

Looked up one by one from the entries so far, two records:
Row | Target | log2 fold change (erlotinib) | log2 fold change [1] | log2 fold change [2] | log2 fold change [3] | log2 fold change [4] | log2 fold change [5] | log2 fold change [6] | log2 fold change [7] | log2 fold change [8] | log2 fold change [9]
11 | TTC37 (UniProt Q6PGP7) |  | inactive: -0.09 |  | inactive: 0.159 | inactive: -0.117 | inactive: -0.567 | inactive: -0.094 |  |  | inactive: -0.173
9 | TTC14 (UniProt Q96N46) | inactive: 0.267 |  | inactive: 0.122 |  |  |  | inactive: -0.056 | inactive: 0.08 | inactive: -0.047 | 

More results.

Row | Target | log2 fold change (erlotinib) | log2 fold change [1] | log2 fold change [2] | log2 fold change [3] | log2 fold change [4] | log2 fold change [5] | log2 fold change [6] | log2 fold change [7] | log2 fold change [8] | log2 fold change [9]
22 | TSPAN13 (UniProt O95857) | inactive: 0.017 |  | inactive: 0.061 |  |  | inactive: -0.058 | inactive: 0.075 | inactive: 0.065 | inactive: 0.143 | inactive: -0.02
23 | TUBB8 (UniProt Q3ZCM7) | inactive: -0.036 |  | inactive: 0.16 |  |  |  |  |  |  | inactive: -0.041
24 | UBE3B (UniProt Q7Z3V4) |  | inactive: 0.018 |  | inactive: 0.121 | inactive: -0.043 | inactive: 0.08 | inactive: 0.135 | inactive: 0.395 | inactive: 0.16 | inactive: 0.064
25 | TUBB8B (UniProt A6NNZ2) | inactive: 0.062 |  | inactive: 0.141 |  |  | inactive: 0.098 | inactive: 0.014 | inactive: -0.068 | inactive: 0.059 | inactive: 0.028
26 | TTC17 isoform 2 (UniProt Q96AE7) | inactive: 0.103 |  | inactive: 0.081 |  |  |  |  |  |  | 
27 | TYRO3 (UniProt Q06418) |  |  |  |  |  | inactive: 0.033 | inactive: 0.155 |  |  | 
28 | TSPAN4 (UniProt O14817) | inactive: -0.088 |  | inactive: 0.059 |  |  |  | inactive: -0.212 | inactive: -0.083 | inactive: 0.14 | inactive: 0.004
29 | TUT7 (UniProt Q5VYS8) |  | inactive: -0.021 |  | inactive: 0.145 | inactive: 0.01 | inactive: -0.641 |  | inactive: -0.001 | inactive: -0.174 | 
30 | TSPYL1 (UniProt Q9H0U9) | inactive: -0.158 | inactive: -0.141 | inactive: 0.032 | inactive: -0.068 | inactive: 0.079 |  |  |  |  | 
31 | TUBGCP5 (UniProt Q96RT8) | inactive: 0.077 |  | inactive: 0.014 |  |  | inactive: -0.004 | inactive: 0.04 | inactive: -0.003 | inactive: -0.04 | 
32 | TXNDC2 (UniProt Q86VQ3) |  | inactive: -0.006 |  | inactive: -0.079 | inactive: -0.468 |  | inactive: 0.023 |  |  | inactive: 0.061
33 | TTC12 isoform 2 (UniProt Q9H892) | inactive: -0.282 |  | inactive: -0.049 |  |  | inactive: -0.444 | inactive: -0.002 | inactive: 0.058 | inactive: -0.036 | inactive: -0.259
34 | TUT1 (UniProt Q9H6E5) |  |  |  |  |  |  | inactive: 0.062 |  |  | 
35 | TUT4 (UniProt Q5TAX3) | inactive: 0.077 |  | inactive: 0.005 |  |  | inactive: -0.231 | inactive: -0.011 | inactive: -0.015 | inactive: -0.129 | inactive: 0.08
36 | TTC26 |  |  |  |  |  |  | inactive: 0.001 | inactive: 0.09 | inactive: -0.062 | inactive: -0.005
37 | UBAP2L (UniProt F8W726) | inactive: 0.019 |  | inactive: 0.004 |  |  |  | inactive: -0.019 | inactive: 0 | inactive: 0.124 | 
38 | TXNRD1 isoform 7 (UniProt Q16881) | inactive: 0.107 |  | inactive: -0.193 |  |  | inactive: 0.1 | inactive: 0.199 |  |  | 
39 | TUSC2 (UniProt O75896) | inactive: 0.043 |  | inactive: 0.027 |  |  | inactive: 0.231 | inactive: 0.034 |  |  | 
40 | TUBGCP6 (UniProt Q96RT7) |  | inactive: -0.64 |  | inactive: 0.057 | inactive: 0.079 |  |  |  |  | 
41 | TWISTNB (UniProt Q3B726) | inactive: -0.004 |  | inactive: -0.01 |  |  | inactive: -0.517 | inactive: -0.459 | inactive: -0.315 | inactive: -0.067 | 
